Experimental data from USRE47351E1 (Gilead Sciences, Inc., priority 1999, dated 2019).
At least one structure is not confirmed: it was looked up by name or label, or the drawing left a doubt.

Chains of the proteins cited; added tags and fusions are not shown. Lines headed by an entry give the natural chain unless they say otherwise; changes in a name come on top.
UniProt P30543, whole entry: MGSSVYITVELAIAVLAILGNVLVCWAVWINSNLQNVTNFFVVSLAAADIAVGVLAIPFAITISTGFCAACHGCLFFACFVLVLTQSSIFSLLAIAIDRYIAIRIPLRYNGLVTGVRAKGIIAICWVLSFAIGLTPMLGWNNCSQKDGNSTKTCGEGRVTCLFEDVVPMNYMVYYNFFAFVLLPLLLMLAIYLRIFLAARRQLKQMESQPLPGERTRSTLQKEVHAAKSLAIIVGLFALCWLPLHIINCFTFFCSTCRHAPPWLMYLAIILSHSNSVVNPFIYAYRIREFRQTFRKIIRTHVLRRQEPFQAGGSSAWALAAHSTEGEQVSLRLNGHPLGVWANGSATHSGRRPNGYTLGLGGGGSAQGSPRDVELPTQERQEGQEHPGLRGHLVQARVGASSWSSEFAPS
UniProt P30542, whole entry: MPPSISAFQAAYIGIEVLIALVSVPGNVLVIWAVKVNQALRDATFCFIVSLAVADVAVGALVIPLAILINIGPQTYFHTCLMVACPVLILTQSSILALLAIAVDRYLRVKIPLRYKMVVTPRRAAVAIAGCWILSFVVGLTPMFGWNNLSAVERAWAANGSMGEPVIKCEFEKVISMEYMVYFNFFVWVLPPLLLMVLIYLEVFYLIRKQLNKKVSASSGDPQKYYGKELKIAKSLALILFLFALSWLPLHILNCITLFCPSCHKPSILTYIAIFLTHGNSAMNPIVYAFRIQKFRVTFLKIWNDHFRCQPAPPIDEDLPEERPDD

How the values were obtained:
A2A adenosine receptor = A2A adenosine receptor (Rattus norvegicus (Rat), UniProt P30543); assay: Reversal time of coronary vasodilation in rat isolated perfused hearts; conditions: bolus injection
human A1AdoR = human A1AdoR (Homo sapiens (Human), UniProt P30542); assay: Competition binding, [3H]DPCPX/[3H]CPX sites on CHO-hA1AdoR cell membranes; conditions: undefined bracketed value, possibly Hill slope

Nc1nc(-n2cc(-c3ccc(Cl)cc3)cn2)nc2c1ncn2C1O[C@H](CO)[C@@H](O)[C@H]1O (stereo partly drawn) [Compound 13, (4S,2R,3R,5R)-2-{6-Amino-2-[4-(4-chlorophenyl)pyrazolyl]purin-9-yl}-5-(hydroxymethyl)oxolane-3,4-diol]
t 0.5 (min), time to 50% reversal of the increase in coronary conductance (A2A adenosine receptor): 14.4 ± 1.9 min
t 0.9 (min), time to 90% reversal of the increase in coronary conductance (A2A adenosine receptor): 21.3 ± 3.9 min

Nc1nc(N/N=C/C2CCCCC2)nc2c1ncn2[C@@H]1O[C@H](CO)[C@@H](O)[C@H]1O [WRC-0470, 2-cyclohexylmethylidenehydrazino-adenosine]
Value in square brackets below binding affinity, CHO-hA1AR (not defined in the patent) (human A1AdoR): [1.13 ± 0.21]
